We go through two sequences from PMC9470594.

Sequences of proteins named here, by UniProt entry; tags and fusion partners are left off.
UniProt A0A804M0V9, entry or part of it: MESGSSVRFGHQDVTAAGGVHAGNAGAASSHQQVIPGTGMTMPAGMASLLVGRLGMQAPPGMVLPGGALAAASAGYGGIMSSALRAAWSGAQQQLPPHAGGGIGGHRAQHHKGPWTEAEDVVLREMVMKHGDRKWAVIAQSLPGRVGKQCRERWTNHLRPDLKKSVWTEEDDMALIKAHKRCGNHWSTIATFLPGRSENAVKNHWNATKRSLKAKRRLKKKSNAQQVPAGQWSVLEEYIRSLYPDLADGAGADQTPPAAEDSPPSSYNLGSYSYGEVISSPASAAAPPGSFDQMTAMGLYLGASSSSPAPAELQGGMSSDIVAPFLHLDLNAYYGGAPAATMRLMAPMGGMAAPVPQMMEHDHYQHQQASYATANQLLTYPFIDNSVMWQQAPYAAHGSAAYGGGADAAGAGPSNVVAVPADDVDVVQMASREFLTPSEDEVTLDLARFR

Construct, isoform or probe ends are uncertain for at least one entry. The comparison behind a weaker result is the experiment's own reference, which may not be listed here.

The target of this series is DED1 (R2R3-MYB), GST fusion (Zea mays) (UniProt A0A804M0V9). Description: competition with a labelled probe. Particulars: 5 mM Mg2+, EMSA: 50 ng DED1-GST, 6 ng probe in 20 uL 10 mM Tris pH 7.5, 50 mM KCl, 1 mM DTT, 2.5% glycerol, 5 mM MgCl2, 0.05% NP-40, 25 C, 20 min, recombinant protein, protein details: GST (N-terminal, pGEX-4T-1). For orientation: A gel shift assay detects complexes by their altered migration in electrophoresis.

Consider “CTGAACCGTTTTTCGGTTTAGACCTTCTCTGCTGACTGAAGCTTC (double strand) [sus1 mutant competitor]”, for which the binding result (100-fold unlabelled competitor vs sus1 probe) is reported as “binds more weakly”. As for “TGTACAAATATTTCTACTGAAGACCTTTAAGAAACCACCTGTGGA (double strand) [fl3 mutant competitor]”, the binding result (100-fold unlabelled competitor vs fl3 probe) was “binds more weakly”.
